Data on two molecules can be found in publication PMC11557892, “Structural basis of MICAL autoinhibition” (Nature Communications, 2024).

These are yes or no findings as the source states them, for the method shown.

The target of test [1] is T1, human MICAL1 (residues M1-G1067) (human), Q8TDZ2.
T1 chain: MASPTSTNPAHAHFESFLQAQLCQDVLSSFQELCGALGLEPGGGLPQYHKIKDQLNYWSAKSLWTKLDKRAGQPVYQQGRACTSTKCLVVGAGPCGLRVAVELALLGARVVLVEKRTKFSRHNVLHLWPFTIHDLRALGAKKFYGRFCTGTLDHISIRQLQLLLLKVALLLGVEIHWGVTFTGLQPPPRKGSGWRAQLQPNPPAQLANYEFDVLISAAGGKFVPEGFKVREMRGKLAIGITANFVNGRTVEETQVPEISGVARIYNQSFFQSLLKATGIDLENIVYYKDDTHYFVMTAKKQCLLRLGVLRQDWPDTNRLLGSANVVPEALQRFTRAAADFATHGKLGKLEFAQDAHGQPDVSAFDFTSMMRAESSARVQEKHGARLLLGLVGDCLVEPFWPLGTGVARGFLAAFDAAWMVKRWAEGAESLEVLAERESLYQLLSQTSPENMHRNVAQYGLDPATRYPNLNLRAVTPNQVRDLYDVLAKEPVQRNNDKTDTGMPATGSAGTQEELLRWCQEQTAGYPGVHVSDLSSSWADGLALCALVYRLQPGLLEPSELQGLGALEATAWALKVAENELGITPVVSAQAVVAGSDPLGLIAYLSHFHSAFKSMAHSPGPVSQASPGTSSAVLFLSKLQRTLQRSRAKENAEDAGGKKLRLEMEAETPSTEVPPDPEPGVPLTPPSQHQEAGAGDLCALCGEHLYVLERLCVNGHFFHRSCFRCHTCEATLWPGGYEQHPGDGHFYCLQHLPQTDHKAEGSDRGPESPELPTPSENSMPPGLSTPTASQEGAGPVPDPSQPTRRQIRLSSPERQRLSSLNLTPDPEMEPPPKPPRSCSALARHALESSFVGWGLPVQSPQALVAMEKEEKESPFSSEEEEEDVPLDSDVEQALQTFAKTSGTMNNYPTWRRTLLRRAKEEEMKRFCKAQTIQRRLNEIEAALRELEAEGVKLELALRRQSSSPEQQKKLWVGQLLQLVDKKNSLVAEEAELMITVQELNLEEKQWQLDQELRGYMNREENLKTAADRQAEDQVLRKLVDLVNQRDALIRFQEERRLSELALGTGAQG
The test can be described thus: AUC; sedimentation velocity, 40,000 rpm; 15 mM Tris-HCl pH 8.0, 150 mM NaCl, 2 mM DTT; 1 and 5 mg/ml (8 and 40 µM); both purified. The conditions noted are these: remark: other sources report otherwise.

In test [2] the target is T1, human MICAL1 (residues M1-G1067) …. The test can be described thus: SEC-MALS; Agilent Biosec-3 column; 15 mM Tris-HCl pH 8.0, 150 mM NaCl, 2 mM DTT, 25 °C; initial concentrations 2.0, 1.0 and 0.5 mg/ml; both purified. The conditions noted are these: remark: other sources report otherwise.
Test [3] concerns the target T2, biotinylated human MICAL1^CC (residues K918-G1067) (human) (UniProt Q8TDZ2).
T2 sequence (chain, biotin on the Avi tag (biotinylated in vivo)): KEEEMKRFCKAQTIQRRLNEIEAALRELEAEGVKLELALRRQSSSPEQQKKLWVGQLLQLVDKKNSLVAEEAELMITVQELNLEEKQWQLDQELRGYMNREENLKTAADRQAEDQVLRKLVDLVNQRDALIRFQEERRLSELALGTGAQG
Nature of the test: BLI; biotinylated CC domain immobilised (8.8 µg/ml) on Octet SAX biosensors, MO or MICAL1^ΔCC as analyte; 20 mM HEPES pH 7.4, 150 mM NaCl, 2 mM DTT, 2 mM MgCl2, 0.05% Tween 20, 20 °C; duplicates; both purified.

B1: human MICAL1 (residues M1-G1067), Q8TDZ2 1-1067 (protein)
chain: T1 chain
With B1, the binding entry in test [1] was “no binding (tested: 40 µM)”; in test [2] it was “no binding (tested: 2.0 mg/ml)”.

B2: human MICAL1^MO (residues T7-E489) (domain or fragment, UniProt Q8TDZ2 7-489)
chain: TNPAHAHFESFLQAQLCQDVLSSFQELCGALGLEPGGGLPQYHKIKDQLNYWSAKSLWTKLDKRAGQPVYQQGRACTSTKCLVVGAGPCGLRVAVELALLGARVVLVEKRTKFSRHNVLHLWPFTIHDLRALGAKKFYGRFCTGTLDHISIRQLQLLLLKVALLLGVEIHWGVTFTGLQPPPRKGSGWRAQLQPNPPAQLANYEFDVLISAAGGKFVPEGFKVREMRGKLAIGITANFVNGRTVEETQVPEISGVARIYNQSFFQSLLKATGIDLENIVYYKDDTHYFVMTAKKQCLLRLGVLRQDWPDTNRLLGSANVVPEALQRFTRAAADFATHGKLGKLEFAQDAHGQPDVSAFDFTSMMRAESSARVQEKHGARLLLGLVGDCLVEPFWPLGTGVARGFLAAFDAAWMVKRWAEGAESLEVLAERESLYQLLSQTSPENMHRNVAQYGLDPATRYPNLNLRAVTPNQVRDLYDVLAKE
In the case of B2, the binding result in test [3] is reported as “no binding (tested: 27 µM)”.
